# Measured values published in article PMC12435843.
# Amino acid sequences for entries named in this document (tags omitted).
# UniProt Q01147: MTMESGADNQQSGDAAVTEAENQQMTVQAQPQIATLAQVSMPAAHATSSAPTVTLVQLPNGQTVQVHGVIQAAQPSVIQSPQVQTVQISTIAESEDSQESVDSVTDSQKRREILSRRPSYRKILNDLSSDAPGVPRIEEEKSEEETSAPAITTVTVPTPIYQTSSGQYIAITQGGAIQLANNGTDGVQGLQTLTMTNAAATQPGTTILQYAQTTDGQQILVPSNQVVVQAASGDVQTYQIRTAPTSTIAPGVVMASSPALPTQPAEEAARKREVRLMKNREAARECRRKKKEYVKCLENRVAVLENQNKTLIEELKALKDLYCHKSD
# These are yes or no findings as the source states them, for the method shown. In cells and extracts the contact can be indirect. Some results given as binding are weak or reduced against the parent protein; the word gives no strength.
# Biological target: T1, CREB-regulated transcription coactivator 2 (mouse (endogenous in mouse liver)) (UniProt Q3U182)
# T1 sequence: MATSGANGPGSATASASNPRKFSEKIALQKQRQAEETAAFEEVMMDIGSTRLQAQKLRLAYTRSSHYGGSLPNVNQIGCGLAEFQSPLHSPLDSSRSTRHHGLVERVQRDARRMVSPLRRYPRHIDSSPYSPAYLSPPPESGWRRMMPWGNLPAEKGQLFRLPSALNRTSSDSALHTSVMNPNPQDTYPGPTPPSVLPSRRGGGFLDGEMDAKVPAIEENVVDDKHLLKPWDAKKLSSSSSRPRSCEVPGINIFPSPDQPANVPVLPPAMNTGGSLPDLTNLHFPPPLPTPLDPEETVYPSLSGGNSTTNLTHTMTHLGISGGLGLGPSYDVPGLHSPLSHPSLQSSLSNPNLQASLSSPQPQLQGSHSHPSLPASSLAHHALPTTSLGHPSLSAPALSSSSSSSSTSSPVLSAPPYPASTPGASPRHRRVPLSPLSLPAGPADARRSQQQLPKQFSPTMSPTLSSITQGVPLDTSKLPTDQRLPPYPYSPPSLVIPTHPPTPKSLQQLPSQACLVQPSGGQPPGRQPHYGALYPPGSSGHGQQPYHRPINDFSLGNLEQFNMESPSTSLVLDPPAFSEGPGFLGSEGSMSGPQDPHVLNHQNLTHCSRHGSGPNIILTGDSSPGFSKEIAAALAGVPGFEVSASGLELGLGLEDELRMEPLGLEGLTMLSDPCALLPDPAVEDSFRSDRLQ
# Assay: co-IP; mouse liver tissue, mice fasted 6 hours before sacrifice; mice injected with Ctrl (pAdV5), hGULL or mGULL adenoviruses (Figure 3C), or obese mice injected with tri-GalNAc-NC, tri-GalNAc-hGULF or tri-GalNAc-mGULF RNA oligos (Figure 7B); which protein was precipitated is not told
substance,measurement,value
CREB (from UniProt Q01147 1-327),binding,binds
